Some peptides are written in HELM: one residue between dots, names in brackets for other building blocks, links after the first $.
Assay: general procedure: solution-phase peptide synthesis; N-hydroxysuccinimide active esters (EDCl)
[1] = late stage modification step, trifluoroacetate
[2] = late stage modification step, acetic acid salt

Substance “(3-Carboxylpropionyl)-Trp-Lys(ε-N-(2-methylphenyl)aminocarbonyl)-Asp(OBn)-(NMe)PheNH2” has a step yield (late stage modification step) of 95%.

In the case of “H-Trp-Lys(2-methylphenylaminocarbonyl)-AspN(Me)PheNH2 trifluoroacetate”, the step yield [1] was 98%.

In the case of “Isobutyloxycarbonyl-Trp-Lys(ε-N-(2-methylphenyl)aminocarbonyl)-(NMe)Asp-PheNH2”, the step yield (late stage modification step) was 82% yield.

“Methylaminocarbonyl-Trp-Lys(ε-N-(2-methylphenyl)aminocarbonyl)-Asp(OBn)-(NMe)PheNH2” showed a step yield (late stage modification step) of 88%.

With “PEPTIDE1{[Boc].W.[Lys(2MePhNHCO)].[Asp(OEtMor)].[NMePhe].[am]}$$$$V2.0” the step yield (coupling step) was 74% yield.

With “PEPTIDE1{[Boc].W.[Lys(3PyAcr)].[NMeAsp].F.[am]}$$$$V2.0” the step yield (late stage modification step) was 64%.

“PEPTIDE1{[Boc].W.[Lys(ThAcr)].[NMeAsp].F.[am]}$$$$V2.0” gave a step yield (late stage modification step) of 62%.

“PEPTIDE1{[NMeTrp].[Lys(oTolNHCO)].[NMeAsp].F.[am]}$$$$V2.0” showed a step yield (late stage modification step, HCl) of 79%.

Work on “PEPTIDE1{[NMeTrp].[Lys_oTolNHCO].[NMeAsp].[aNal].[am]}$$$$V2.0” yielded a step yield (late stage modification step) of 37%.

With “PEPTIDE1{[tBuNHCO].W.[Lys(Tac)].D.[NMePhe].[am]}$$$$V2.0” the difficulty met (late stage modification step) was “The reaction was incomplete after 1 day”.

With “Trp-Lys(ε-N-(2-methylphenyl)aminocarbonyl)-Asp(OBn)-(NMe)PheNH2 trifluoroacetate” the step yield [1] was 92%.

Substance “t-BOC-(NMe)Trp-Lys(ε-N-(2-methylphenyl)aminocarbonyl)-(NMe)Asp-α-NalNH2” has a step yield (late stage modification step) of 73%.

Work on “t-BOC-Trp-(NMe)Lys(ε-N-(2-methylphenyl)aminocarbonyl)-Asp-(NMe)PheNH2” yielded an isolated yield (whole synthesis) of 50%.

Work on “t-BOC-Trp-Lys(ε-N-(2-methylphenyl)aminocarbonyl)-Asp(OBn)-(NMe)PheNH2” yielded a step yield (coupling step) of 95%.

“t-BOC-Trp-Lys(ε-N-(2-methylphenyl)aminocarbonyl)-Asp(β-(OCH2 --CO--N(CH3)2))-(NMe)PheNH2” showed a step yield (coupling step) of 85% yield.

With “t-BOC-Trp-Lys(ε-benzyloxycarbonyl)-(NMe)Asp(OBn)-PheNH2” the step yield (coupling step) was 68%.

t-BOC-Trp-Lys-(NMe)Asp-(NMe)PheNH2 gave a step yield [2] of 86%.

t-BOC-Trp-Lys-(NMe)AspPheNH2 gave a step yield [2] of 67%.

“t-BOC-Trp-Lys-(ε-N-3-(3-pyridyl)acrylyl)-(NMe)Asp-(NMe)PheNH2” gave a step yield (late stage modification step) of 66%.

Source: patent US5270302A (priority 1991, dated 1993)
